# Source: patent US20090275033A1
# Amino acid sequences for entries named in this document (tags omitted).
# UniProt P23760: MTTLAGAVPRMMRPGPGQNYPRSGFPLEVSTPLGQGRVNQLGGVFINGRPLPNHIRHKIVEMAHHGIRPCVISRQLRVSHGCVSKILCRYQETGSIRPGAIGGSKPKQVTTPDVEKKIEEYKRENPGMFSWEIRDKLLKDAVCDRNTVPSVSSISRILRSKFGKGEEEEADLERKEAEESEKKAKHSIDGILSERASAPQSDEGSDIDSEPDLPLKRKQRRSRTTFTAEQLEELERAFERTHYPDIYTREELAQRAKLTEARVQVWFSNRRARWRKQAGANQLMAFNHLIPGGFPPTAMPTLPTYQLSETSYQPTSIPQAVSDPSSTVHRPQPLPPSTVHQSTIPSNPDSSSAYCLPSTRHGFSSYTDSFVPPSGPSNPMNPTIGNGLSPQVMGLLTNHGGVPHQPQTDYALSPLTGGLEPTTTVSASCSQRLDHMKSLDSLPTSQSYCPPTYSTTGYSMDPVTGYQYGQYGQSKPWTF
# No constants are given. Whether binding was seen depends on the method and setting. Some binding calls cover weakened binding; strength is not graded here.
# T1: BNIPXL-beta (BCl2/adenovirus E1B 19 kDa protein-interacting protein 2) (human) (UniProt Q8WUY3)
# T1 sequence: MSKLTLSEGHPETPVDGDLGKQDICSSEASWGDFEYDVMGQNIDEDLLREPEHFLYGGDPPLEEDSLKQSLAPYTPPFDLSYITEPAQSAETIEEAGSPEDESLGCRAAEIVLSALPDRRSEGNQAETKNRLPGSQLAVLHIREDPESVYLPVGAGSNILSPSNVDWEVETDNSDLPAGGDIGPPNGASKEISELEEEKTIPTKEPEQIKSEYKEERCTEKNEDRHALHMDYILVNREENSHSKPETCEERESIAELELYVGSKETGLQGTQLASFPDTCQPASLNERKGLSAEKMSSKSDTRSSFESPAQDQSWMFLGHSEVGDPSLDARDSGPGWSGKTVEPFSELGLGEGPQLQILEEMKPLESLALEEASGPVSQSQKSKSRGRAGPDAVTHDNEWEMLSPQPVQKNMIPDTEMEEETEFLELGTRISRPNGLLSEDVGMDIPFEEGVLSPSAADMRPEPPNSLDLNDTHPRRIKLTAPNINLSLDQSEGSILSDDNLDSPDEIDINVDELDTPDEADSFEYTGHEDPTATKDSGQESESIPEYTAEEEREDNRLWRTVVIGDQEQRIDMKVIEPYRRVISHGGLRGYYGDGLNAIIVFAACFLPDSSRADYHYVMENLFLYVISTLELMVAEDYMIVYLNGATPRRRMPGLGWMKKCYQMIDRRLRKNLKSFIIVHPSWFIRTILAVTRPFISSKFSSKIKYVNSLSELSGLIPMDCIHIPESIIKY
# How the values were obtained:
# PAX3 (human) = PAX3 (human) (UniProt P23760); test: yeast two-hybrid
# [1] = target: T1, BNIPXL-beta (BCl2/adenovirus E1B 19 kDa protein-interacting protein 2) (human); test: yeast two-hybrid, DDX31 bait against human melanocyte prey library; global biological score PIM (PBS class)
# [2] = target: T1, BNIPXL-beta (BCl2/adenovirus E1B 19 kDa protein-interacting protein 2) (human); test: yeast two-hybrid
binding (PAX3 (human)),binding [1],binding [2],Binder
binds,–,–,"GTF3C4 (protein, human, UniProt Q9UKN8 1-822, looked up) MNTADQARVGPADDGPAPSGEEEGEGGGEAGGKEPAADAAPGPSAAFRLMVTRREPAVKLQYAVSGLEPLAWSEDHRVSVSTARSIAVLELICDVHNPGQDLVIHRTSVPAPLNSCLLKVGSKTEVAECKEKFAASKDPTVSQTFMLDRVFNPEGKALPPMRGFKYTSWSPMGCDANGRCLLAALTMDNRLTIQANLNRLQWVQLVDLTEIYGERLYETSYRLSKNEAPEGNLGDFAEFQRRHSMQTPVRMEWSGICTTQQVKHNNECRDVGSVLLAVLFENGNIAVWQFQLPFVGKESISSCNTIESGITSPSVLFWWEYEHNNRKMSGLIVGSAFGPIKILPVNLKAVKGYFTLRQPVILWKEMDQLPVHSIKCVPLYHPYQKCSCSLVVAARGSYVFWCLLLISKAGLNVHNSHVTGLHSLPIVSMTADKQNGTVYTCSSDGKVRQLIPIFTDVALKFEHQLIKLSDVFGSVRTHGIAVSPCGAYLAIITTEGMINGLHPVNKNYQVQFVTLKTFEEAAAQLLESSVQNLFKQVDLIDLVRWKILKDKHIPQFLQEALEKKIESSGVTYFWRFKLFLLRILYQSMQKTPSEALWKPTHEDSKILLVDSPGMGNADDEQQEEGTSSKQVVKQGLQERSKEGDVEEPTDDSLPTTGDAGGREPMEEKLLEIQGKIEAVEMHLTREHMKRVLGEVYLHTWITENTSIPTRGLCNFLMSDEEYDDRTARVLIGHISKKMNKQTFPEHCSLCKEILPFTDRKQAVCSNGHIWLRCFLTYQSCQSLIYRRCLLHDSIARHPAPEDPDWIKRLLQSPCPFCDSPVF"
–,binds,binds,"DDX31 long form (full-length variant 1, amino acids 1-851) (enzyme) MAPDLASQRHSESFPSVNSRPNVILPGREGRREGLPPGGGTRGSLVPTRPVPPSPAPLGTSPYSWSRSGPGRGGGAGSSRVPRGVPGPAVCAPGSLLHHASPTQTMAAADGSLFDNPRTFSRRPPAQASRQAKATKRKYQASSEAPPAKRRNETSFLPAKKTSVKETQRTFKGNAQKMFSPKKHSVSTSDRNQEERQCIKTSSLFKNNPDIPELHRPVVKQVQEKVFTSAAFHELGLHPHLISTINTVLKMSSMTSVQKQSIPVLLEGRDALVRSQTGSGKTLAYCIPVVQSLQAMESKIQRSDGPYALVLVPTRELALQSFDTVQKLLKPFTWIVPGVLMGGEKRKSEKARLRKGINILISTPGRLVDHIKSTKNIHFSRLRWLVFDEADRILDLGFEKDITVILNAVNAECQKRQNVLLSATLTEGVTRLADISLHDPVSISVLDKSHDQLNPKDKAVQEVCPPPAGDKLDSFAIPESLKQHVTVVPSKLRLVCLAAFILQKCKFEEDQKMVVFFSSCELVEFHYSLFLQTLLSSSGAPASGQLPSASMRLKFLRLHGGMEQEERTAVFQEFSHSRRGVLLCTDVAARGLDLPQVTWIVQYNAPSSPAEYIHRIGRTARIGCHGSSLLILAPSEAEYVNSLASHKINVSEIKMEDILCVLTRDDCFKGKRWGAQKSHAVGPQEIRERATVLQTVFEDYVHSSERRVSWAKKALQSFIQAYATYPRELKHIFHVRSLHLGHVAKSFGLRDAPRNLSALTRKKRKAHVKRPDLHKKTQSKHSLAEILRSEYSSGMEADIAKVKKQNAPGEPGGRPLQHSLQPTPCFGRGKTLKWRKTQKGVQRDSKTSQKV"
